Measured values published in the supplement of paper PMC10849652.
Some of the results follow.

Amino acid sequences for entries named in this document (tags omitted). A change or cut given only in a name is not applied to a line headed by its entry.
UniProt Q9H3Z4: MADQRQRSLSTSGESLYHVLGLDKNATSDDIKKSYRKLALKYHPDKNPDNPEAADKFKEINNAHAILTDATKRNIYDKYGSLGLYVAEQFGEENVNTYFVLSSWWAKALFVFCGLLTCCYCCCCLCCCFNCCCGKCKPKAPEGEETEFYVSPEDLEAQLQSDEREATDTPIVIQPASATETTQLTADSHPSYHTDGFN
UniProt Q99615: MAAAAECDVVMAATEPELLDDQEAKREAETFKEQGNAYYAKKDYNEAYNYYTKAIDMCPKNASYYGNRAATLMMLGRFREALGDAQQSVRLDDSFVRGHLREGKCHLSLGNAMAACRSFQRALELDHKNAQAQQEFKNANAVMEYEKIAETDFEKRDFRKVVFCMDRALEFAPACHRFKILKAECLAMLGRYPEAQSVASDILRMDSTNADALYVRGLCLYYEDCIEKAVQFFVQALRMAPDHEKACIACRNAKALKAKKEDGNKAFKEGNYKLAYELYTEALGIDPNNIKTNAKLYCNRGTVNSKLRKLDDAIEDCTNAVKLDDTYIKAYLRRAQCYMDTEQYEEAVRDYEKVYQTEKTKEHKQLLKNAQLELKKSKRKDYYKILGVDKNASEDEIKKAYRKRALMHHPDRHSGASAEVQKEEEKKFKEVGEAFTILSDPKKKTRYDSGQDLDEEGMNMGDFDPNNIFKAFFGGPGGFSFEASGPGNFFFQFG
UniProt O00115: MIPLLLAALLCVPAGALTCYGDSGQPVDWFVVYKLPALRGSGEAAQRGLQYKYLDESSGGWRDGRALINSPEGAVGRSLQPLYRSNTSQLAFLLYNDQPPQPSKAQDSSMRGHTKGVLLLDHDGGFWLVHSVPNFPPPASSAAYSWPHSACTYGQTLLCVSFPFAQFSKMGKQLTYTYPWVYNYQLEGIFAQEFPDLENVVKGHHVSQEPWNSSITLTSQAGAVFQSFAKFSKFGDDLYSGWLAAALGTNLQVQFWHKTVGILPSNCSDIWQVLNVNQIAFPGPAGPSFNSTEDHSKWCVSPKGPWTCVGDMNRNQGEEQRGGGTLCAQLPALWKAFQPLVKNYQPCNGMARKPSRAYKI
UniProt P33316: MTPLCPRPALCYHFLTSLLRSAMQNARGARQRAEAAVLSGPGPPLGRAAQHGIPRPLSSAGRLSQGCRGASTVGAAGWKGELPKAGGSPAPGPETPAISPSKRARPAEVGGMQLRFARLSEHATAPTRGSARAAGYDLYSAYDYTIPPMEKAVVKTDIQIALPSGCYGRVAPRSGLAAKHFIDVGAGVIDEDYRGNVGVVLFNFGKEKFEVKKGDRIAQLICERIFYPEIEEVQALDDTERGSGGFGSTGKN
UniProt Q96N67: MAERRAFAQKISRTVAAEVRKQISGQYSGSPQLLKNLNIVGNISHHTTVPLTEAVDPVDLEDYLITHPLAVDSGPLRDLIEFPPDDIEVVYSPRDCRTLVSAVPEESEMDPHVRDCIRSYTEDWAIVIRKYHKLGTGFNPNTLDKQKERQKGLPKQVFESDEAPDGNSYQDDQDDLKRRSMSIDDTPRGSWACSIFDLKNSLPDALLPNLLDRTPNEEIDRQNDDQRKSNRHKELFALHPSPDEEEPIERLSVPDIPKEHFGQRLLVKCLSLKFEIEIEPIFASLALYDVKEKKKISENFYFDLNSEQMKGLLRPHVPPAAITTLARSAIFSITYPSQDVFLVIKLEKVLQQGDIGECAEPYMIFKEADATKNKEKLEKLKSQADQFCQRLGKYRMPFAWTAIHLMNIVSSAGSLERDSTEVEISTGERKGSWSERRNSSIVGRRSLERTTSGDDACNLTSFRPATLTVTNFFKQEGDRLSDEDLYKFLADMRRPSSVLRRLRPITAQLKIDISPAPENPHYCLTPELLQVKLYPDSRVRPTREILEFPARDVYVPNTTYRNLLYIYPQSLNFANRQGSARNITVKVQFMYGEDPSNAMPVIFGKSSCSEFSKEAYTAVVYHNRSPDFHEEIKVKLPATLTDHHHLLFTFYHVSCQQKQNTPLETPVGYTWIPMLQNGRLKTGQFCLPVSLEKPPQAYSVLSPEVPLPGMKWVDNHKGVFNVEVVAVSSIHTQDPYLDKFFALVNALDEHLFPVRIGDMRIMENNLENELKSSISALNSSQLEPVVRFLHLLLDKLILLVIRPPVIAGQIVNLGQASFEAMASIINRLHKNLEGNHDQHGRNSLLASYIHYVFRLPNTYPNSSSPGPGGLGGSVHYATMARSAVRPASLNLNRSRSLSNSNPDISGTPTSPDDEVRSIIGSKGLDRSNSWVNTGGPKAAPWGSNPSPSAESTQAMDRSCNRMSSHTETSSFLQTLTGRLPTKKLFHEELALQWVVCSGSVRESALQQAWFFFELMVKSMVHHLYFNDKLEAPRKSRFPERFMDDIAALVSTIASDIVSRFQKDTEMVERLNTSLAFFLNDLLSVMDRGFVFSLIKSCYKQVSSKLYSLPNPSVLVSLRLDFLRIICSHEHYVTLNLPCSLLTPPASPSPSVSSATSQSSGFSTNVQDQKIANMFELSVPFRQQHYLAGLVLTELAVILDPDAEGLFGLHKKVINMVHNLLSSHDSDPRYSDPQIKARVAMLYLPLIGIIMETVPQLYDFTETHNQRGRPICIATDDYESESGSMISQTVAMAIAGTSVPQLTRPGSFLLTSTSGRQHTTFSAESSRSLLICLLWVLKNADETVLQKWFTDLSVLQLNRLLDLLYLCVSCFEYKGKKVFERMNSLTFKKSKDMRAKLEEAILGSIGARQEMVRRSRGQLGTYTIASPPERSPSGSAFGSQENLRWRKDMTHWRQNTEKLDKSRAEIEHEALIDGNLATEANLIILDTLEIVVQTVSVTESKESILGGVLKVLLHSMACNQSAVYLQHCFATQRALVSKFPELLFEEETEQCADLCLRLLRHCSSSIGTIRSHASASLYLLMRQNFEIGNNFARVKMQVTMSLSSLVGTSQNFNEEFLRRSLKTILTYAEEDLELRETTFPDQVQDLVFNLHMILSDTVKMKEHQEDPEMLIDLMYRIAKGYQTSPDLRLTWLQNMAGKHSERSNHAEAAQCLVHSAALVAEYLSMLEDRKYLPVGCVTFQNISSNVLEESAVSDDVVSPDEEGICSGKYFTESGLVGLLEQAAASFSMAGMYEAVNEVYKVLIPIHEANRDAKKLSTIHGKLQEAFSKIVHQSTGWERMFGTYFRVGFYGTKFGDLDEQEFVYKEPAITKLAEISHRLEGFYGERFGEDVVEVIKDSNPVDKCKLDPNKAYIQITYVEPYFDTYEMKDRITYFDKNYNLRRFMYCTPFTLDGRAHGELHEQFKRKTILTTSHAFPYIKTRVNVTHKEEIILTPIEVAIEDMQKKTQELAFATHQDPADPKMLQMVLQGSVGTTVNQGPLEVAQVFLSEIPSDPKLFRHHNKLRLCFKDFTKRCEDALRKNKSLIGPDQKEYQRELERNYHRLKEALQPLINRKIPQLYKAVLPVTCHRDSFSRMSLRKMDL
UniProt P51452: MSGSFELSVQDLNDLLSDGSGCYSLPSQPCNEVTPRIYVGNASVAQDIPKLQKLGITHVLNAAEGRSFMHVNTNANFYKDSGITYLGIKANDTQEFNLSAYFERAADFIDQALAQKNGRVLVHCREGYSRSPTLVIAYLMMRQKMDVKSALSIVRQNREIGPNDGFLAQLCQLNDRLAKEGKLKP
UniProt Q96F86: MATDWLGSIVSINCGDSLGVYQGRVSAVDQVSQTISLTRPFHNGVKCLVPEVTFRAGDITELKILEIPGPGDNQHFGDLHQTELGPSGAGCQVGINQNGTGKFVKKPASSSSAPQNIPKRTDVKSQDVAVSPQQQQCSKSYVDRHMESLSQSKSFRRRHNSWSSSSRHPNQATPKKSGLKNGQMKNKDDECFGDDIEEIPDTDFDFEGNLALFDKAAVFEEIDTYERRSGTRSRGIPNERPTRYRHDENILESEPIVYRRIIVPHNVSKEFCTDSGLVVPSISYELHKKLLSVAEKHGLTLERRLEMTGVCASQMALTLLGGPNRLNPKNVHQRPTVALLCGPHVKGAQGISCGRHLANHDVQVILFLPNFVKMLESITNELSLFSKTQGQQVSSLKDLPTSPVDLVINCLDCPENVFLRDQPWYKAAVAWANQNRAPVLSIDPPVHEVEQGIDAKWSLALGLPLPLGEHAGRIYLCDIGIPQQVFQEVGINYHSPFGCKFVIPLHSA
UniProt Q14126: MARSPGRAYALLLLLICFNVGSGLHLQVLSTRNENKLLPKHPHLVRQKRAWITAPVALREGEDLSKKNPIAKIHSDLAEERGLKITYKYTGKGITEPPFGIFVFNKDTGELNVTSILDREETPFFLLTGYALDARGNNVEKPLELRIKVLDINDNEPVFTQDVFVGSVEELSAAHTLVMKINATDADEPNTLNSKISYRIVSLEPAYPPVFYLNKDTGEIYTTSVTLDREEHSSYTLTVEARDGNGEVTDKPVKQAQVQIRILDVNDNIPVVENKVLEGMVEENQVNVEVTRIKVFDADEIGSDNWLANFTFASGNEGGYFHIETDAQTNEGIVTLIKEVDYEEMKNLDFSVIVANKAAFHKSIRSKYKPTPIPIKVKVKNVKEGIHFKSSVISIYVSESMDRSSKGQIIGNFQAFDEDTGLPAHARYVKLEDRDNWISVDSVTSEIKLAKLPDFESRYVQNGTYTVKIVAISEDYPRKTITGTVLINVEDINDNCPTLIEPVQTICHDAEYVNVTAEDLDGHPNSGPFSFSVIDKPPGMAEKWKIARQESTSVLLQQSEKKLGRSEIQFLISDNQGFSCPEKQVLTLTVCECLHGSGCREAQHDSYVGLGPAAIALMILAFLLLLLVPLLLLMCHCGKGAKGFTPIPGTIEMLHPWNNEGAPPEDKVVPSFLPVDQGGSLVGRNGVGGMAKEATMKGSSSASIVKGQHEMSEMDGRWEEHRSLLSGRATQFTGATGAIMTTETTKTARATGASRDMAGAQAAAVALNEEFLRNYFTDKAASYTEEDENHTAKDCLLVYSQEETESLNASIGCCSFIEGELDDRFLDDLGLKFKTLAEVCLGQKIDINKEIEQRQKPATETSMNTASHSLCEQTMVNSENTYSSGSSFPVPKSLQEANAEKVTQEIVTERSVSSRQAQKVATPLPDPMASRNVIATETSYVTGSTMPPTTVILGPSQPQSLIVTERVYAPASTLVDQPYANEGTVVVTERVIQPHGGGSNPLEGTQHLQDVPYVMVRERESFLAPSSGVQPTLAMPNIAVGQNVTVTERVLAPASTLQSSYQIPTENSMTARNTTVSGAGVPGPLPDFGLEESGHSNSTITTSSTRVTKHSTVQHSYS
UniProt Q9NVM6: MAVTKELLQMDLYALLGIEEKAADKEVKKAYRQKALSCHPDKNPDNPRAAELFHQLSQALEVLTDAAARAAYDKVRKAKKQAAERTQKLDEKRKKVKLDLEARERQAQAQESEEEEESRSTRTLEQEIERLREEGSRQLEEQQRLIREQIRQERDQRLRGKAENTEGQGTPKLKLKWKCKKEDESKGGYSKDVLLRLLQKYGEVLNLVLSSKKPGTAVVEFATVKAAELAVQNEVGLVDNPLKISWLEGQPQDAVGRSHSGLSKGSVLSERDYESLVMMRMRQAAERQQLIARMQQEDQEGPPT
UniProt Q9P2X0: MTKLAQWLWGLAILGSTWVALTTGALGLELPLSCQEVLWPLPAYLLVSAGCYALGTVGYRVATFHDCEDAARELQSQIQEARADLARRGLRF
UniProt O60869: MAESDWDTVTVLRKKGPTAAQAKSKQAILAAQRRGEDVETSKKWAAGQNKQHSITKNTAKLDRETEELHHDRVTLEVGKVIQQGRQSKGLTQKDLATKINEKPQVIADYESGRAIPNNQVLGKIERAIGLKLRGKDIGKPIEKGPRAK
UniProt Q01658: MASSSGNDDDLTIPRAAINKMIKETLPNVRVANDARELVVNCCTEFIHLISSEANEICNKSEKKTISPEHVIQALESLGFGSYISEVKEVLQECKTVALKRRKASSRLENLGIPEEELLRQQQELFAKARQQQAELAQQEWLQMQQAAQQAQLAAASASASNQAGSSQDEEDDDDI
UniProt Q5SXM8: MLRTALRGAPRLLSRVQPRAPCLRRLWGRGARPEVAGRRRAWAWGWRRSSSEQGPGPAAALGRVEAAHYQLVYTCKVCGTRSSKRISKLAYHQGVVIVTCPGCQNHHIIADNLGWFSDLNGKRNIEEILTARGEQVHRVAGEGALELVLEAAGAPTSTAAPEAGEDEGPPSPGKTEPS
UniProt Q9BZG8: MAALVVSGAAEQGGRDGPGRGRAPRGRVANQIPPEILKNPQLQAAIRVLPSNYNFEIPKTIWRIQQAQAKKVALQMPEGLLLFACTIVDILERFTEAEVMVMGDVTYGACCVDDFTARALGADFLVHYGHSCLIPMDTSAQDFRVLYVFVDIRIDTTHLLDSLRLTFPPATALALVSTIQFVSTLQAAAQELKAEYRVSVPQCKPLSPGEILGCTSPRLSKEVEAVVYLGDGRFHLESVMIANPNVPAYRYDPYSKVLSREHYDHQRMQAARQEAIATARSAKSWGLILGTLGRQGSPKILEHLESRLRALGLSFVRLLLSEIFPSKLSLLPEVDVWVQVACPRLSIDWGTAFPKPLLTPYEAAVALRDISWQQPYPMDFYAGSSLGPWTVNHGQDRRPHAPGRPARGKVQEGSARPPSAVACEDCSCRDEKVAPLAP

compound: C1=CC2=NC=CN=C2C=C1/C=C/3\C(=O)NC(=O)S3; experiment: log2 fold change, soluble protein after heating vs DMSO (PISA); higher = thermal stabilisation; K562 cells, 10 uM, 30 min; active = over 0.2 and 3.5 SD of the protein, either way, in both replicates (recomputed)
How it was run: (§1)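 Quantification of soluble protein used TMTpro 16plex LC-MS/MS, with channel sums equalised. Samples were the supernatant after 21,000xg for 90 min of pooled aliquots from K562 cells (2×10^6 cells/mL) treated with 10 μM compound for 30 min, heated for 3 min over 48°C-58°C, and extracted in PBS with 0.5% NP-40 at 4°C. Values, from duplicates, describe thermal stability against control samples on a log2 fold-change scale.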

log2 fold change, inactive:
DNAJC13 (UniProt O75165) -0.035
DYRK1A isoform 2 (UniProt Q13627) -0.173
DRAP1 isoform 2 (UniProt Q14919) 0.045
E2F4 (UniProt Q16254) 0.043
DNAJC2 (UniProt Q99543) -0.04
DNAJC5 (UniProt Q9H3Z4) 0.09
EDEM1 (UniProt Q92611) 0.036
DNAJC7 (UniProt Q99615) 0.024
DNASE2 (UniProt O00115) 0.048
ECM1 isoform 4 (UniProt Q16610) 0.01
DUT (UniProt P33316) 0
EDC4 (UniProt Q6P2E9) -0.069
DSTN (UniProt P60981) 0.032
DOCK7 (UniProt Q96N67) 0.012
DSC2 (UniProt Q02487) -0.047
DUSP3 (UniProt P51452) 0.013
DPH7 (UniProt Q9BTV6) 0.061
DRG1 (UniProt Q9Y295) 0
EDC3 (UniProt Q96F86) -0.227
ECH1 (UniProt Q13011) -0.018
DNAJB14 (UniProt Q8TBM8) -0.023
DST (UniProt Q03001) -0.161
DSG2 (UniProt Q14126) 0.009
DNAJC17 (UniProt Q9NVM6) 0.038
DPM3 isoform 2 (UniProt Q9P2X0) 0.037
DNAJB4 (UniProt Q9UDY4) 0.016
EDF1 (UniProt O60869) -0.017
ECE1 (UniProt P42892) -0.057
DNAJB11 (UniProt Q9UBS4) 0.023
DR1 (UniProt Q01658) 0.058
DNLZ (UniProt Q5SXM8) 0.025
DOCK9 isoform 4 (UniProt Q9BZ29) 0.026
DPH1 (UniProt Q9BZG8) -0.011

compound: C1=CC=C(C=C1)C2=NC(=C(N2)C3=CC=NC=C3)C4=CC(=C(C=C4)Cl)O; experiment: as above
How it was run: as §1

log2 fold change, active:
ECH1 (UniProt Q13011) 0.541

log2 fold change, inactive:
DNAJC13 (UniProt O75165) -0.041
DYRK1A isoform 2 (UniProt Q13627) -0.027
DRAP1 isoform 2 (UniProt Q14919) 0.03
E2F4 (UniProt Q16254) -0.064
DNAJC2 (UniProt Q99543) -0.022
DNAJC5 (UniProt Q9H3Z4) -0.029
EDEM1 (UniProt Q92611) 0.033
DNAJC7 (UniProt Q99615) 0.013
DNASE2 (UniProt O00115) -0.053
ECM1 isoform 4 (UniProt Q16610) -0.026
DUT (UniProt P33316) -0.021
EDC4 (UniProt Q6P2E9) -0.035
DSTN (UniProt P60981) 0.062
DOCK7 (UniProt Q96N67) -0.047
DSC2 (UniProt Q02487) -0.069
DUSP3 (UniProt P51452) 0.002
DPH7 (UniProt Q9BTV6) -0.067
DRG1 (UniProt Q9Y295) -0.067
EDC3 (UniProt Q96F86) -0.024
DNAJB14 (UniProt Q8TBM8) 0.035
DST (UniProt Q03001) 0.045
DSG2 (UniProt Q14126) 0.014
DNAJC17 (UniProt Q9NVM6) -0.028
DPM3 isoform 2 (UniProt Q9P2X0) 0.005
DNAJB4 (UniProt Q9UDY4) -0.049
EDF1 (UniProt O60869) -0.02
ECE1 (UniProt P42892) -0.051
DNAJB11 (UniProt Q9UBS4) -0.043
DR1 (UniProt Q01658) 0.035
DNLZ (UniProt Q5SXM8) -0.067
DOCK9 isoform 4 (UniProt Q9BZ29) 0.017
DPH1 (UniProt Q9BZG8) -0.007

compound: C1=CC=C2C(=C1)C3=NNC4=CC=CC(=C43)C2=O; experiment: as above
How it was run: as §1

log2 fold change, inactive:
DNAJC13 (UniProt O75165) -0.018
DYRK1A isoform 2 (UniProt Q13627) -0.064
DRAP1 isoform 2 (UniProt Q14919) -0.05
E2F4 (UniProt Q16254) -0.02
DNAJC2 (UniProt Q99543) -0.011
DNAJC5 (UniProt Q9H3Z4) -0.148
EDEM1 (UniProt Q92611) -0.002
DNAJC7 (UniProt Q99615) 0.023
DNASE2 (UniProt O00115) -0.015
ECM1 isoform 4 (UniProt Q16610) -0.033
DUT (UniProt P33316) 0.024
EDC4 (UniProt Q6P2E9) -0.151
DSTN (UniProt P60981) -0.048
DOCK7 (UniProt Q96N67) 0.074
DSC2 (UniProt Q02487) -0.073
DUSP3 (UniProt P51452) -0.009
DPH7 (UniProt Q9BTV6) 0.148
DRG1 (UniProt Q9Y295) -0.02
EDC3 (UniProt Q96F86) -0.057
DNAJB14 (UniProt Q8TBM8) 0
DST (UniProt Q03001) 0.027
DSG2 (UniProt Q14126) -0.058
DNAJC17 (UniProt Q9NVM6) 0.054
DPM3 isoform 2 (UniProt Q9P2X0) 0.034
DNAJB4 (UniProt Q9UDY4) -0.024
EDF1 (UniProt O60869) 0.01
ECE1 (UniProt P42892) -0.056
DNAJB11 (UniProt Q9UBS4) -0.06
DR1 (UniProt Q01658) -0.005
DNLZ (UniProt Q5SXM8) -0.013
DOCK9 isoform 4 (UniProt Q9BZ29) -0.069
DPH1 (UniProt Q9BZG8) -0.003

log2 fold change, active:
ECH1 (UniProt Q13011) 0.361
